# Test results reported in the supplement of paper PMC4604168 (melanoma cell lines).
# The list shows a part of the results. Repeats are few or missing, and single values can be far off.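 The apoptosis fraction was the count of cleaved-PARP antibody-stained nuclei relative to all DNA-stained nuclei, imaged in 1,536-well plates. Screening doses were set so most cells survived, and baseline and induced cleaved-PARP levels vary greatly across cell lines.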
# Test system: SkMel30
# Assay: cleaved PARP positive nuclei fraction relative to DMSO control; melanoma cells; higher = more apoptosis
# Conditions: library dose: low library concentration; 72 h
row,Compound,cleaved PARP positive nuclei fraction [%]
1,"Cc1cc(Nc2cc(N3CCN(C)CC3)nc(Sc3ccc(NC(=O)C4CC4)cc3)n2)n[nH]1 [Tozasertib] + O=C(O)[C@@H]1[O][Sb](=[O])([O][Sb]2(=[O])[O][C@H]([C@H](O)CO)[C@H](O)[C@H](C(=O)O)[O]2)[O][C@H]([C@H](O)CO)[C@@H]1O [stibogluconate] (first compound 0.006 µM, partner dose 2 µM)",63.5
2,"O=C(/C=C/c1cccnc1)NCCCCC1CCN(C(=O)c2ccccc2)CC1 + Nc1ccn([C@@H]2O[C@H](CO)[C@@H](O)C2(F)F)c(=O)n1 [gemcitabine] (first compound 0.01 µM, partner dose 0.0004 µM)",67.7
3,"O=C(/C=C/c1cccnc1)NCCCCC1CCN(C(=O)c2ccccc2)CC1 + O=C(O)c1ccc2c(c1)nc(Nc1cccc(Cl)c1)c1ccncc12 [CX4945] (first compound 0.01 µM, partner dose 0.4 µM)",60.8
4,"O=C(/C=C/c1cccnc1)NCCCCC1CCN(C(=O)c2ccccc2)CC1 + Cc1ccc(Nc2nccc(N(C)c3ccc4c(C)n(C)nc4c3)n2)cc1S(N)(=O)=O [Pazopanib] (first compound 0.01 µM, partner dose 0.4 µM)",58.5
5,"Cc1cc(Nc2cc(N3CCN(C)CC3)nc(Sc3ccc(NC(=O)C4CC4)cc3)n2)n[nH]1 [Tozasertib] + CC(C)C[C@H](NC(=O)[C@H](Cc1ccccc1)NC(=O)c1cnccn1)B(O)O [Bortezomib] (first compound 0.006 µM, partner dose 0.001 µM)",58.1
6,"Cc1ccc(Nc2nccc(N(C)c3ccc4c(C)n(C)nc4c3)n2)cc1S(N)(=O)=O [Pazopanib] + Cn1c(=O)n(-c2ccc(C(C)(C)C#N)cc2)c2c3cc(-c4cnc5ccccc5c4)ccc3ncc21 [NVP-BEZ235] (first compound 0.4 µM, partner dose 0.004 µM)",219
7,"Cc1cc(Nc2cc(N3CCN(C)CC3)nc(Sc3ccc(NC(=O)C4CC4)cc3)n2)n[nH]1 [Tozasertib] + CS(=O)(=O)CCNCc1ccc(-c2ccc3ncnc(Nc4ccc(OCc5cccc(F)c5)c(Cl)c4)c3c2)o1 [lapatinib] (first compound 0.006 µM, partner dose 0.8 µM)",93.8
8,"Cc1ccc(Nc2nccc(N(C)c3ccc4c(C)n(C)nc4c3)n2)cc1S(N)(=O)=O [Pazopanib] + Nc1nc(F)nc2c1ncn2[C@@H]1O[C@H](CO)[C@@H](O)[C@@H]1O [fludarabine] (first compound 0.4 µM, partner dose 0.2 µM)",545
9,"N#CC[C@H](C1CCCC1)n1cc(-c2ncnc3[nH]ccc23)cn1 [ruxolitinib] + CC(=O)c1c(C)c2cnc(Nc3ccc(N4CCNCC4)cn3)nc2n(C2CCCC2)c1=O [palbociclib] (first compound 1 µM, partner dose 0.04 µM)",88.7
10,"O=C(Nc1cc(C(F)(F)F)cc(C(F)(F)F)c1)c1cc(Cl)ccc1O + Nc1nc(F)nc2c1ncn2[C@@H]1O[C@H](CO)[C@@H](O)[C@@H]1O [fludarabine] (first compound 0.016 µM, partner dose 0.2 µM)",1700
11,"O=C(Nc1cc(C(F)(F)F)cc(C(F)(F)F)c1)c1cc(Cl)ccc1O + O=C(/C=C/c1cccnc1)NCCCCC1CCN(C(=O)c2ccccc2)CC1 [FK866] (first compound 0.016 µM, partner dose 0.01 µM)",28.1

# Test system: UACC62
# Assay: as above
# Conditions: library dose: low library concentration; 72 h
row,Compound,cleaved PARP positive nuclei fraction [%]
1,"N#CC[C@H](C1CCCC1)n1cc(-c2ncnc3[nH]ccc23)cn1 [ruxolitinib] + C=CCNC1=C2C[C@@H](C)C[C@H](OC)[C@H](O)[C@@H](C)/C=C(\C)[C@H](OC(N)=O)[C@@H](OC)/C=C\C=C(/C)C(=O)NC(=CC1=O)C2=O [Tanespimycin] (first compound 1 µM, partner dose 0.002 µM)",48.1
2,"Cc1cn(-c2cc(NC(=O)c3ccc(C)c(Nc4nccc(-c5cccnc5)n4)c3)cc(C(F)(F)F)c2)cn1 [nilotinib] + COCC[n+]1c2c(n(Cc3cnccn3)c1C)C(=O)c1ccccc1C2=O [YM155] (first compound 0.2 µM, partner dose 0.0004 µM)",23.6
3,"Cc1cn(-c2cc(NC(=O)c3ccc(C)c(Nc4nccc(-c5cccnc5)n4)c3)cc(C(F)(F)F)c2)cn1 [nilotinib] + CCN(CC)CCNC(=O)c1c(C)[nH]c(/C=C2\C(=O)Nc3ccc(F)cc32)c1C [sunitinib] (first compound 0.2 µM, partner dose 0.4 µM)",144
4,"COc1cc([C@@H]2c3cc4c(cc3[C@@H](O[C@@H]3O[C@@H]5CO[C@@H](C)O[C@H]5[C@H](O)[C@H]3O)[C@H]3COC(=O)[C@H]23)OCO4)cc(OC)c1O [etoposide] + CNC(=O)c1cc(Oc2ccc(NC(=O)Nc3ccc(Cl)c(C(F)(F)F)c3)cc2)ccn1 [sorafenib] (first compound 0.02 µM, partner dose 0.4 µM)",57.5
5,"Cc1cc(Nc2cc(N3CCN(C)CC3)nc(Sc3ccc(NC(=O)C4CC4)cc3)n2)n[nH]1 [Tozasertib] + CN1CCN(c2ccc3nc(-c4c(N)c5c(F)cccc5[nH]c4=O)[nH]c3c2)CC1 [Dovitinib] (first compound 0.006 µM, partner dose 0.1 µM)",118
6,"COc1cc([C@@H]2c3cc4c(cc3[C@@H](O[C@@H]3O[C@@H]5CO[C@@H](C)O[C@H]5[C@H](O)[C@H]3O)[C@H]3COC(=O)[C@H]23)OCO4)cc(OC)c1O [etoposide] + Nc1cccc2c1CN(C1CCC(=O)NC1=O)C2=O [lenalidomide] (first compound 0.02 µM, partner dose 1 µM)",61.9
7,"CC[C@]1(O)C[C@H]2CN(CCc3c([nH]c4ccccc34)[C@@](C(=O)OC)(c3cc4c(cc3OC)N(C=O)[C@H]3[C@@](O)(C(=O)OC)[C@H](OC(C)=O)[C@]5(CC)C=CCN6CC[C@]43[C@@H]65)C2)C1 [vincristine] + Cc1cn(-c2cc(NC(=O)c3ccc(C)c(Nc4nccc(-c5cccnc5)n4)c3)cc(C(F)(F)F)c2)cn1 [nilotinib] (first compound 0.0001 µM, partner dose 0.2 µM)",204
8,"N#CC[C@H](C1CCCC1)n1cc(-c2ncnc3[nH]ccc23)cn1 [ruxolitinib] + Nc1cccc2c1CN(C1CCC(=O)NC1=O)C2=O [lenalidomide] (first compound 1 µM, partner dose 1 µM)",89.8
9,"N#CC[C@H](C1CCCC1)n1cc(-c2ncnc3[nH]ccc23)cn1 [ruxolitinib] + COCC[n+]1c2c(n(Cc3cnccn3)c1C)C(=O)c1ccccc1C2=O [YM155] (first compound 1 µM, partner dose 0.0004 µM)",260
10,"CCCCCCCCCCCCCCCCCCOP(=O)([O-])OC1CC[N+](C)(C)CC1 [Perifosine] + O=C(O)[C@@H]1[O][Sb](=[O])([O][Sb]2(=[O])[O][C@H]([C@H](O)CO)[C@H](O)[C@H](C(=O)O)[O]2)[O][C@H]([C@H](O)CO)[C@@H]1O [stibogluconate] (first compound 0.4 µM, partner dose 2 µM)",115
11,"O=c1[nH]nc(Sc2ncc([N+](=O)[O-])s2)n1-c1ccc2c(c1)OCCO2 + Nc1ncn([C@H]2C[C@H](O)[C@@H](CO)O2)c(=O)n1 [decitabine] (first compound 0.2 µM, partner dose 0.1 µM)",50
12,"O=C(Nc1cc(C(F)(F)F)cc(C(F)(F)F)c1)c1cc(Cl)ccc1O + CC(C)C[C@H](NC(=O)[C@H](Cc1ccccc1)NC(=O)c1cnccn1)B(O)O [Bortezomib] (first compound 0.016 µM, partner dose 0.001 µM)",94.1
13,"N#CC[C@H](C1CCCC1)n1cc(-c2ncnc3[nH]ccc23)cn1 [ruxolitinib] + C[C@]1(O)C[C@@H](c2nc(-c3ccc4ccc(-c5ccccc5)nc4c3)c3c(N)nccn32)C1 [OSI906] (first compound 1 µM, partner dose 0.4 µM)",17.9
14,"Cc1cc(Nc2cc(N3CCN(C)CC3)nc(Sc3ccc(NC(=O)C4CC4)cc3)n2)n[nH]1 [Tozasertib] + CNC(=O)c1cc(Oc2ccc(NC(=O)Nc3ccc(Cl)c(C(F)(F)F)c3)cc2)ccn1 [sorafenib] (first compound 0.006 µM, partner dose 0.4 µM)",124
15,"Cc1ccc(Nc2nccc(N(C)c3ccc4c(C)n(C)nc4c3)n2)cc1S(N)(=O)=O [Pazopanib] + CN1CCN(c2ccc3nc(-c4c(N)c5c(F)cccc5[nH]c4=O)[nH]c3c2)CC1 [Dovitinib] (first compound 0.4 µM, partner dose 0.1 µM)",183
16,"Cc1cn(-c2cc(NC(=O)c3ccc(C)c(Nc4nccc(-c5cccnc5)n4)c3)cc(C(F)(F)F)c2)cn1 [nilotinib] + Cn1c(=O)n(-c2ccc(C(C)(C)C#N)cc2)c2c3cc(-c4cnc5ccccc5c4)ccc3ncc21 [NVP-BEZ235] (first compound 0.2 µM, partner dose 0.004 µM)",95.9
17,"O=c1[nH]nc(Sc2ncc([N+](=O)[O-])s2)n1-c1ccc2c(c1)OCCO2 + C=CCNC1=C2C[C@@H](C)C[C@H](OC)[C@H](O)[C@@H](C)/C=C(\C)[C@H](OC(N)=O)[C@@H](OC)/C=C\C=C(/C)C(=O)NC(=CC1=O)C2=O [Tanespimycin] (first compound 0.2 µM, partner dose 0.002 µM)",57.7

# Taken from above:
# For cleaved PARP positive nuclei fraction [%], CCCCCCCCCCCCCCCCCCOP(=O)([O-])OC1CC[N+](C)(C)CC1 [Perifosine] + O=C(O)[C@@H]1[O][Sb](=[O])([O][Sb]2(=[O])[O][C@H]([C@H](O)CO)[C@H](O)[C@H](C(=O)O)[O]2)[O][C@H]([C@H](O)CO)[C@@H]1O [stibogluconate] (first compound 0.4 µM, partner dose 2 µM) shows 115
# For cleaved PARP positive nuclei fraction [%], O=C(Nc1cc(C(F)(F)F)cc(C(F)(F)F)c1)c1cc(Cl)ccc1O + CC(C)C[C@H](NC(=O)[C@H](Cc1ccccc1)NC(=O)c1cnccn1)B(O)O [Bortezomib] (first compound 0.016 µM, partner dose 0.001 µM) shows 94.1
